Binding data for 1 substance are collected here from publication PMC11211442.

Sequences of proteins named here, by UniProt entry; tags and fusion partners are left off.
UniProt K4LM89: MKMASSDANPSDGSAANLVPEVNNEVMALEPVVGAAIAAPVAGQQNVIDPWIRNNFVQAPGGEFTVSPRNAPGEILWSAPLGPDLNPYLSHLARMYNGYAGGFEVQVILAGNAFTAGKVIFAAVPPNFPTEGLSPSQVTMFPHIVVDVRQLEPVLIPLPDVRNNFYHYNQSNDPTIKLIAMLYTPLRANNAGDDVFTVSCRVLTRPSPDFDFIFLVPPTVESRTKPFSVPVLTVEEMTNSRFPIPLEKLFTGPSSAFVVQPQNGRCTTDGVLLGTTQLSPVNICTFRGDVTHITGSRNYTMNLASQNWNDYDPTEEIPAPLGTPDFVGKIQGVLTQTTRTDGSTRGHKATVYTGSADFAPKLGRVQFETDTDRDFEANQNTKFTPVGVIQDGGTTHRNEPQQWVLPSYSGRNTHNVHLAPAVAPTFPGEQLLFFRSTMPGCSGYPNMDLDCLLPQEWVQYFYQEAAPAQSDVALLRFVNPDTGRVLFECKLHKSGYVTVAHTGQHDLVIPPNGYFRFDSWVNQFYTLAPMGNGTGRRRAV

Results are given in words; binding and its absence hold for the method and conditions named. Some results given as binding are weak or reduced against the parent protein; the word gives no strength.

The assay deals with norovirus capsid protein VP1 from strain Hu/GII.4/Sydney/NSW0514/2012/AU (wild type noro-VLP) (norovirus Hu/GII.4/Sydney/NSW0514/2012/AU) (UniProt K4LM89). Description: dynamic light scattering + transmission electron microscopy; noro-VLP assembled in High Five cells, pelleted by ultracentrifugation (175,000 g), purified by SEC (Sephacryl S-500 HR) in PBS, more than 95% pure; particles analysed by DLS and TEM; both purified. Background: Size exclusion chromatography separates by hydrodynamic size, large species first.

For the substance “norovirus capsid protein VP1 from strain Hu/GII.4/Sydney/NSW0514/2012/AU (wild type noro-VLP) (from UniProt K4LM89 1-540)”, the binding result is “binds”.
